{
  "source": "patent US20230226079A1",
  "about": "“METHODS AND COMPOSITIONS FOR TREATMENT OF SOLID TUMORS” (Saint Louis University, priority 2022, published 2023)",
  "tested_on": "HNC (JHU022, JHU029, Ca127) cell lines",
  "type": "cell-based",
  "conditions": "HNC cell cytotoxicity assay",
  "method": "Ca127, JHU029, JHU022 and NOK were seeded in 96 well-plate (5000 cells/well) and cells were treated with different concentration of M-I for 48 h. There were untreated control and DMSO treated vehicle control group for comparison. Cytotoxicity assay was performed using Cell Counting Kit-8 (Dojindo Molecular Technology, Rockville, Md., USA) according to manufacturer instruction.\nDue to their limited reported biology, the Inventors have selected a few triterpenoids and triterpene glycosides, based on their availability, for preliminary in vitro screening against HNC (JHU022, JHU029, Ca127) cell lines. The Inventors identified momordicine-I (M-I) as one of the chemical constituents at the retention time of 21.06 min in the BME (FIG. 1A). The M-I [C30H4804, PubChem CID: 14807332; IUPAC Name: (3S, 7S, 8S, 9R, 10R, 13R, 14S, 17R) 3,7-dihydroxy-17-(4-hydroxy-6-methylhept-5-en-2-yl)-4,4,13,14-tetramethyl-2,3,7,8,10,11, 12,15, 16,17-decahydro-1H-cyclopenta[a]phenanthrene-9-carbaldehyde] is a white crystalline solid that belongs to the cucurbitane-type triterpene class (FIG. 1B). […] Other compounds, mom ordicoside K (MK), and karavilagenin D (KD), were also examined on HNC cell cytotoxicity assay. These, two other compounds required much higher amounts (>50 ug/mL) even for -40% cell death.",
  "note": "Some of these results come from one statement about several compounds together. For at least one compound, name, drawing or mass did not settle the structure.",
  "data": [
    {"molecule": "C[C@H](C/C=C/C(C)(C)O)[C@H]1CC[C@@]2(C)[C@@H]3C=C[C@@]45OC(=O)[C@]3(CC[C@]12C)[C@@H]4CC[C@H](O)C5(C)C", "note": "[KD, karavilagenin D]", "values": [
      {"measurement": "amount required even for -40% cell death", "value": "> 50", "unit": "µg/mL"}
    ]},
    {"molecule": "COC(C)(C)/C=C/C[C@@H](C)[C@H]1CC[C@@]2(C)[C@@H]3[C@@H](O[C@@H]4O[C@H](CO)[C@@H](O)[C@H](O)[C@H]4O)C=C4[C@@H](CC[C@H](O)C4(C)C)[C@]3(C=O)CC[C@]12C", "note": "[MK, Momordicoside K]", "values": [
      {"measurement": "amount required even for -40% cell death", "value": "> 50", "unit": "µg/mL"}
    ]}
  ]
}
